Laboratory results from the supplement of paper PMC10849652.
The other results are listed elsewhere or left out.

Chains of the proteins cited; added tags and fusions are not shown. Lines headed by an entry give the natural chain unless they say otherwise; changes in a name come on top.
UniProt O75131: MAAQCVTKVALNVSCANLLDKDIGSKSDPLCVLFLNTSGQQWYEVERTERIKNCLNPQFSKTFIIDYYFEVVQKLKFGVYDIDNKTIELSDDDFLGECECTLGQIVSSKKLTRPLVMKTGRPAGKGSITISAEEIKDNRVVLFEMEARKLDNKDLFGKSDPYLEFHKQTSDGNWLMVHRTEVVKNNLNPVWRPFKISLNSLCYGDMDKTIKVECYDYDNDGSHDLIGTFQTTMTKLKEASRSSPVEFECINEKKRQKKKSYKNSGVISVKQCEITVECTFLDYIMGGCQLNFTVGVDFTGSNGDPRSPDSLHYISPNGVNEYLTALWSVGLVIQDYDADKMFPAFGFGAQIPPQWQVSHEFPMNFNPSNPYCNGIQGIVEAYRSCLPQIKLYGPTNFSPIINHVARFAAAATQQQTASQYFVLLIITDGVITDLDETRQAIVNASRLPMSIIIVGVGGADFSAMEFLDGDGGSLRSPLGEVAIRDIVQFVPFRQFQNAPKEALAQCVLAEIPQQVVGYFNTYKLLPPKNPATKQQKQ
UniProt P38432, whole entry, looked up: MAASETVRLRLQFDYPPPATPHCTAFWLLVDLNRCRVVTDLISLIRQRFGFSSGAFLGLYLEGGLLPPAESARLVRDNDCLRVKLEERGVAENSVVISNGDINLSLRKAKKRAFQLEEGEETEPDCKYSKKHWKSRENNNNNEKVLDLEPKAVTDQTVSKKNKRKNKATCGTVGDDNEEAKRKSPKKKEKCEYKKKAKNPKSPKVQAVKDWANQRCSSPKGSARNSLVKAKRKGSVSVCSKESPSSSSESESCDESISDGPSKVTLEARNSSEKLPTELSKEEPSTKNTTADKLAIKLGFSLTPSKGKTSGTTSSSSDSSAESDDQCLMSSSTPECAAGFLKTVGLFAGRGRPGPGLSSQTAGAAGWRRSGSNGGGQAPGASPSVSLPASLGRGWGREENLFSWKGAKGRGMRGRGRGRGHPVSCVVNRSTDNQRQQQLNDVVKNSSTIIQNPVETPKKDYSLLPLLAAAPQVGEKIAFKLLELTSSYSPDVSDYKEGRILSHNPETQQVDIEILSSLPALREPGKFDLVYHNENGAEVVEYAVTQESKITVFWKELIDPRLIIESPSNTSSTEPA
UniProt P21964: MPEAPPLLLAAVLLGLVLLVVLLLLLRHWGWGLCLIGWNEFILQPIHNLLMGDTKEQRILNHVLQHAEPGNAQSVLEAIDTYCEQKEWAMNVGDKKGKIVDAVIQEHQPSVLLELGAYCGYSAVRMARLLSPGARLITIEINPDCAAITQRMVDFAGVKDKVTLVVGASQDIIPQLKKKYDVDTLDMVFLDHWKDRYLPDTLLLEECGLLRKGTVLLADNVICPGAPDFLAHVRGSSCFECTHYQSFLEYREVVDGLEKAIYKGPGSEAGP
UniProt P09543: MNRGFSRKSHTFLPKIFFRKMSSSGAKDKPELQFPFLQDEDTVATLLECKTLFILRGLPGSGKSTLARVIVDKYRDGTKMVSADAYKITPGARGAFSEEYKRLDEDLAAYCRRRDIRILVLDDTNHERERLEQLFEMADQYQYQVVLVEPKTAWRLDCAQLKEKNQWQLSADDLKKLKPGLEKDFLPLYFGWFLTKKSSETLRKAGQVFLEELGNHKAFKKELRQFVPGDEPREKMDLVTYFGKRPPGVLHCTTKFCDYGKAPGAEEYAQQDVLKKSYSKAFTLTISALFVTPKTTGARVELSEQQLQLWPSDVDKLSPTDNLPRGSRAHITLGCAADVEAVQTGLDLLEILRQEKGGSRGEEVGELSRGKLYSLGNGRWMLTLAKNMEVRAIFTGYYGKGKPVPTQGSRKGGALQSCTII
UniProt P14406, whole entry, looked up: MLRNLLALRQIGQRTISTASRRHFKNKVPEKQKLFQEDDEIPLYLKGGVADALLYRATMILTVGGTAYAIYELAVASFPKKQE
UniProt Q9BSW2: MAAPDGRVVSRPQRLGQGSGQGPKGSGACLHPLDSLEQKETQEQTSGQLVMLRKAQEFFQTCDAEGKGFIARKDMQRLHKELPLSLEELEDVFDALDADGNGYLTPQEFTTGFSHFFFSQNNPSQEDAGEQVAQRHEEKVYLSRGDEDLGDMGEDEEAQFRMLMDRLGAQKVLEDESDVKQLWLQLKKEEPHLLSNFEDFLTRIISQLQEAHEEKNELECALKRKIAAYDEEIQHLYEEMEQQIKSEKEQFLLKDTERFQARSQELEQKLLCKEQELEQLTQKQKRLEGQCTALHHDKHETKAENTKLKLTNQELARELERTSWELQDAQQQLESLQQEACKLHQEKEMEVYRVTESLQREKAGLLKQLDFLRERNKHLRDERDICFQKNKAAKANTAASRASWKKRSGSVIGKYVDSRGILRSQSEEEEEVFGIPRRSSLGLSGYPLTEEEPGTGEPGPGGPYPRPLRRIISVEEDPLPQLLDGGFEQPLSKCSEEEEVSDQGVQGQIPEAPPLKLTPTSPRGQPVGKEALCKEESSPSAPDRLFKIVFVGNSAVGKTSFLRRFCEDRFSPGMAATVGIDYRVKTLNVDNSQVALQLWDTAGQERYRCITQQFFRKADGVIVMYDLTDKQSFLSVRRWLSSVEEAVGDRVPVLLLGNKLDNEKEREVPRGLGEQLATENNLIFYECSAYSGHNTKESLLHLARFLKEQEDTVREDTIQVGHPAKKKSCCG
UniProt O75976: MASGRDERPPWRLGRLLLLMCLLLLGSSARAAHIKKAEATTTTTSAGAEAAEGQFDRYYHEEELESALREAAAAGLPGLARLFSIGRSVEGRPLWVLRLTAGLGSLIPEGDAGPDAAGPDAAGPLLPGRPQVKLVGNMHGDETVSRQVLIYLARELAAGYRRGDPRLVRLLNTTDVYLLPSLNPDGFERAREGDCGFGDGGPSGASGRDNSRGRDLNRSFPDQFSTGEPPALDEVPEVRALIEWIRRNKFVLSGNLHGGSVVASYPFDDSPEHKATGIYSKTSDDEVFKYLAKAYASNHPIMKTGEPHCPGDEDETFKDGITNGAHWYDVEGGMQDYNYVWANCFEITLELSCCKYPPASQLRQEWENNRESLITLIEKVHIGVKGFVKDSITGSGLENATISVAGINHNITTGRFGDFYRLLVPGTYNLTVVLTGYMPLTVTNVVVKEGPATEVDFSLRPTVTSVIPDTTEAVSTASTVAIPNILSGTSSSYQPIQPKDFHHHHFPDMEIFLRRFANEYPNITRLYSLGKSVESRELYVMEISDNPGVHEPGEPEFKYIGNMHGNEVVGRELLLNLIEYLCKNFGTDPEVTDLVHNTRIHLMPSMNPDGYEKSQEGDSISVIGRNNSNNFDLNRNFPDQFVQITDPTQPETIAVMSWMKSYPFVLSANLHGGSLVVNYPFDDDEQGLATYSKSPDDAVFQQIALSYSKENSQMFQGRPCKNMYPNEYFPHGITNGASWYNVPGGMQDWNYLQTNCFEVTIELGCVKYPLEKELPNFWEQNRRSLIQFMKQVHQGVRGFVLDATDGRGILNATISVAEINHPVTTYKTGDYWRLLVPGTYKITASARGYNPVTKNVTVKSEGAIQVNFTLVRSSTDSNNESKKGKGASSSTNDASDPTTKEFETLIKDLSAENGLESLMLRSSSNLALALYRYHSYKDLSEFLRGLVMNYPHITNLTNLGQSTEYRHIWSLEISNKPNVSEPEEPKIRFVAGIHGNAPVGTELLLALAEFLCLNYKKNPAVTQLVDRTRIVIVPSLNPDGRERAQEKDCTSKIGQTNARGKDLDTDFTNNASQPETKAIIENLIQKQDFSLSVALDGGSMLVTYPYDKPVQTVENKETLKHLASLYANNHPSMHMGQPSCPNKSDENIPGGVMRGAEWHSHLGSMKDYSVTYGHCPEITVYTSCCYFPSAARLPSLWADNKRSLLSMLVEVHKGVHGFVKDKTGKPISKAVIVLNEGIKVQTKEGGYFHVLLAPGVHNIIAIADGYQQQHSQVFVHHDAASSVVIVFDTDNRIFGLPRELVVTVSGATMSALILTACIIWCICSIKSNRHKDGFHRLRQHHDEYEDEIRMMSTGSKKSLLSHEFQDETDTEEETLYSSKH
UniProt Q9UP83: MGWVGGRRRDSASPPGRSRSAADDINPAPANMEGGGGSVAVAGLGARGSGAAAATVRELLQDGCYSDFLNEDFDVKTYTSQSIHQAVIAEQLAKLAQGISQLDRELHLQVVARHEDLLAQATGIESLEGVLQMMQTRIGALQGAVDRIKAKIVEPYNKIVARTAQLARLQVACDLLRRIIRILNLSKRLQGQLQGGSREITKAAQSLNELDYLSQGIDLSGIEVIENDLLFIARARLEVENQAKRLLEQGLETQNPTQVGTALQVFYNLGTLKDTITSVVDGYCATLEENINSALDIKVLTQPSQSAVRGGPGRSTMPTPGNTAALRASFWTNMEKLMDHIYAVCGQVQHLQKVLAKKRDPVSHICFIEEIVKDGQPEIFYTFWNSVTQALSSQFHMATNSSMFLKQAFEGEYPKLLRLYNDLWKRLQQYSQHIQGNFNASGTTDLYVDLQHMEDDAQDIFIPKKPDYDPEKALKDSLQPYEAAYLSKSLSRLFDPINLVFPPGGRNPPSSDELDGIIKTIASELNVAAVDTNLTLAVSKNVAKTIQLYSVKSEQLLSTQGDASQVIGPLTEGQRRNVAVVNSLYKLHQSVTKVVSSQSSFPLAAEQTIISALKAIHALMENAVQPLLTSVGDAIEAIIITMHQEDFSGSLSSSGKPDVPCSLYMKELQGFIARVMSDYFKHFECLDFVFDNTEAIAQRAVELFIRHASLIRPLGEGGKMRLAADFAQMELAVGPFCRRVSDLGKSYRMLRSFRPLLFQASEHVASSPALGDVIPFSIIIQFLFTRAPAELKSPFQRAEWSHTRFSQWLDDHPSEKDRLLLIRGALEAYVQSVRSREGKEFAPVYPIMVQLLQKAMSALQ
UniProt Q92600, whole entry, looked up: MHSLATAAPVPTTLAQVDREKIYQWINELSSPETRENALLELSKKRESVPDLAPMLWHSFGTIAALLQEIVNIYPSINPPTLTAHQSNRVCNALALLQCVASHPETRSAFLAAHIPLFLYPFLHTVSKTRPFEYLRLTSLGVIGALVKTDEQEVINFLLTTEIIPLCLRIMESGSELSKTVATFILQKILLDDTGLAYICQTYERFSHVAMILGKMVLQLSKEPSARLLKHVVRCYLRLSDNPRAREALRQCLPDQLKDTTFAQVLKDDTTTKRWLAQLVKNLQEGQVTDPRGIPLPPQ
UniProt P09669, whole entry, looked up: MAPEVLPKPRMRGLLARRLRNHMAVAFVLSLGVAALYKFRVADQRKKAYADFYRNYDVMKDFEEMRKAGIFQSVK

Experiments:
Experiment in all cases: log2 fold change, soluble protein after heating vs DMSO (PISA); higher = thermal stabilisation; K562 lysate, 10 uM; active = over 0.2 and 3.5 SD of the protein, either way, in both replicates (recomputed)
erlotinib = compound: C#Cc1cccc(Nc2ncnc3cc(OCCOC)c(OCCOC)cc23)c1 [erlotinib]
Summary of the method: (§1)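 Dounce homogenisation of K562 pellets in PBS pH 7.4 with 1 mM MgCl2 produced a crude extract, used at 1 mg/mL protein. Exposure to 10 μM compound lasted 30 min, and aliquots were then heated for 3 min across 48°C-58°C, pooled and brought to 0.5% NP-40 at 4°C. The supernatant after 21,000xg for 90 min was quantified by TMTpro 16plex LC-MS/MS with channel sums equalised. Duplicate values are given as log-two fold change in thermal stability relative to solvent controls.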

[1] = compound: C/C(=N\NC(=O)C1=CC(=CC=C1)S(=O)(=O)N2CCOCC2)/C3=C(C=CC(=C3)Cl)O
Summary of the method: as §1

[2] = compound: C1=CC(=CC=C1C2=NC3=C(N2)C=C(C=C3)C(=O)N)OC4=CC=C(C=C4)Cl
Summary of the method: as §1

[3] = compound: C1=CC2=C(C=CC(=C2)/C=C\3/C(=O)NC(=NCC4=CC=CS4)S3)N=C1
Summary of the method: as §1

[4] = compound: C1=CC2=NC=CN=C2C=C1/C=C/3\C(=O)NC(=O)S3
Summary of the method: as §1

[5] = compound: C1=CC=C(C=C1)C2=NC(=C(N2)C3=CC=NC=C3)C4=CC(=C(C=C4)Cl)O
Summary of the method: as §1

[6] = compound: C1=CC=C2C(=C1)C3=NNC4=CC=CC(=C43)C2=O
Summary of the method: as §1

[7] = compound: C1CCN(C1)C(=O)NC2=CC=CC(=C2)NC3=NC=C(C(=N3)NCCC4=CN=CN4)Br
Summary of the method: as §1

[8] = compound: C1CN(CCC1(CC2=CC=C(C=C2)Cl)N)C3=NC=NC4=C3C=CN4
Summary of the method: as §1

IRAK-1-4 Inhibitor I = compound: C1COCCN1CCN2C3=CC=CC=C3N=C2NC(=O)C4=CC(=CC=C4)[N+](=O)[O-] [IRAK-1-4 Inhibitor I]
Summary of the method: as §1

ibrutinib = compound: C=CC(=O)N1CCC[C@@H](n2nc(-c3ccc(Oc4ccccc4)cc3)c3c(N)ncnc32)C1 [ibrutinib]
Summary of the method: as §1

[9] = compound: CC(=O)c1cnc2ccc(-c3cc(Cl)c(O)c(Cl)c3)nc2c1N[C@H]1CC[C@H](CN(C)C)CC1
Summary of the method: as §1

ralimetinib = compound: CC(C)(C)Cn1c(N)nc2ccc(-c3[nH]c(C(C)(C)C)nc3-c3ccc(F)cc3)nc21 [ralimetinib]
Summary of the method: as §1

[10] = compound: CC(C)(O)CC(=O)NCCn1ccc2ncnc(Nc3ccc(Oc4cccc(C(F)(F)F)c4)c(Cl)c3)c21
Summary of the method: as §1

[11] = compound: CC(C)C1=C2N=C(C=C(N2N=C1)NCC3=CC=CC=C3)NCCCCCCN
Summary of the method: as §1

[12] = compound: CC1=C(C(CC(=O)N1)C2=CC=C(C=C2)C(F)(F)F)C(=O)NC3=C(C=C4C(=C3)C=NN4)F
Summary of the method: as §1

[13] = compound: CC1=C(C2=C(C=C1)C(=O)C3=CC=CC=C3N2CCCN)C
Summary of the method: as §1

[14] = compound: CC1=C(C=C(C=C1)NC(=O)C2=CC(=CC=C2)C(C)(C)C#N)NC3=CC4=C(C=C3)N=CN(C4=O)C
Summary of the method: as §1

[15] = compound: CC1=C(C=C(C=C1)NC(=O)C2=CC(=CC=C2)N(C)C)NC(=O)C3=CC=C(C=C3)O
Summary of the method: as §1

[16] = compound: CC1=CC=C(C=C1)SC2=C3C=C(SC3=CN=C2)C(=O)N
Summary of the method: as §1

Measured: log2 fold change

CPNE3 (UniProt O75131)
inactive: erlotinib 0.014 | [1] -0.106 | [2] -0.005 | [3] 0.02 | [4] -0.07 | [5] 0.004 | [6] -0.079 | [7] 0.006 | [8] -0.024 | IRAK-1-4 Inhibitor I -0.011 | ibrutinib -0.046 | [9] -0.01 | ralimetinib -0.017 | [10] 0.004 | [11] 0.024 | [12] 0.01 | [13] -0.02 | [14] -0.005 | [15] 0.015 | [16] 0.008

COIL (UniProt P38432)
inactive: erlotinib 0.007 | [1] 0.003 | [2] 0.029 | [3] -0.037 | [4] 0.053 | [5] 0.02 | [6] 0.047 | [7] -0.03 | [8] 0.116 | IRAK-1-4 Inhibitor I 0.003 | ibrutinib 0.058 | [9] 0.075 | ralimetinib 0.014 | [10] 0.009 | [11] 0 | [12] 0.091 | [13] 0.019 | [14] 0.012 | [15] -0.01 | [16] 0.11

COMT (UniProt P21964)
inactive: erlotinib 0.031 | [1] -0.03 | [2] -0.01 | [3] 0.011 | [4] -0.029 | [5] 0.001 | [6] 0.043 | [7] -0.024 | [8] -0.033 | IRAK-1-4 Inhibitor I 0.019 | ibrutinib 0.01 | [9] 0.019 | ralimetinib 0.01 | [10] 0.016 | [11] 0.009 | [12] -0.045 | [13] 0.002 | [14] 0.031 | [15] 0.019 | [16] 0.01

COPS4 (UniProt Q9BT78)
inactive: erlotinib -0.013 | [1] 0.051 | [2] -0.002 | [3] -0.005 | [4] -0.01 | [5] 0.002 | [6] 0.045 | [7] 0.012 | [8] 0.008 | IRAK-1-4 Inhibitor I -0.013 | ibrutinib 0.122 | [9] 0.01 | ralimetinib 0.015 | [10] 0.015 | [11] -0.004 | [12] -0.004 | [13] 0.001 | [14] -0.011 | [15] 0.001 | [16] 0.006

CNP (UniProt P09543)
inactive: erlotinib -0.005 | [1] -0.066 | [2] 0.002 | [3] -0.012 | [4] -0.022 | [5] 0.007 | [6] -0.004 | [7] -0.016 | [8] 0 | IRAK-1-4 Inhibitor I -0.002 | ibrutinib 0.024 | [9] 0.01 | ralimetinib 0.028 | [10] 0.019 | [11] 0.022 | [12] 0.042 | [13] 0.038 | [14] -0.018 | [15] -0.015 | [16] 0.01

COX7A2 (UniProt P14406)
inactive: erlotinib -0.01 | [1] -0.023 | [2] 0.047 | [3] -0.053 | [4] 0.026 | [5] -0.017 | [6] -0.01 | [7] -0.076 | [8] 0.045 | IRAK-1-4 Inhibitor I -0.007 | ibrutinib 0.038 | [9] -0.029 | ralimetinib 0.016 | [10] -0.075 | [11] 0.027 | [12] -0.015 | [14] 0.087 | [15] 0.022 | [16] -0.017

CRACR2A isoform 2 (UniProt Q9BSW2)
inactive: erlotinib -0.075 | [1] 0.08 | [2] 0.04 | [3] 0.035 | [4] 0.001 | [5] -0.056 | [6] -0.208 | [7] -0.075 | [8] 0.041 | IRAK-1-4 Inhibitor I -0.011 | ibrutinib -0.055 | [9] 0.046 | ralimetinib -0.028 | [10] -0.064 | [11] -0.04 | [12] -0.054 | [13] -0.072 | [14] -0.032 | [15] -0.013 | [16] 0.002

CPD (UniProt O75976)
inactive: erlotinib 0.001 | [1] -0.067 | [2] 0.033 | [3] -0.01 | [4] -0.008 | [5] 0 | [6] -0.056 | [7] -0.05 | [8] 0.08 | IRAK-1-4 Inhibitor I 0.045 | ibrutinib 0 | [9] 0.002 | ralimetinib -0.028 | [10] -0.052 | [11] -0.012 | [12] 0.034 | [13] -0.047 | [14] -0.007 | [15] -0.013 | [16] -0.023

COG5 isoform 2 (UniProt Q9UP83)
inactive: erlotinib 0.073 | [1] 0.016 | [2] -0.044 | [3] 0.001 | [4] -0.004 | [5] 0.019 | [6] 0.031 | [7] 0.019 | [8] 0.043 | IRAK-1-4 Inhibitor I -0.001 | ibrutinib 0.061 | [9] -0.036 | ralimetinib 0.074 | [10] -0.027 | [11] 0.037 | [12] -0.005 | [13] 0.04 | [14] -0.016 | [15] 0.073 | [16] 0.052

CNOT9 (UniProt Q92600)
inactive: erlotinib 0.034 | [1] -0.02 | [2] 0.013 | [3] 0.048 | [4] 0.012 | [5] 0.001 | [6] -0.038 | [7] -0.029 | [8] 0.039 | IRAK-1-4 Inhibitor I 0.062 | ibrutinib 0.046 | [9] -0.002 | ralimetinib 0.012 | [10] -0.034 | [11] -0.016 | [12] 0.021 | [13] 0.001 | [14] 0.037 | [15] -0.036 | [16] 0.015

COX6C (UniProt P09669)
inactive: erlotinib -0.027 | [1] 0.048 | [2] -0.034 | [3] 0.022 | [4] 0.004 | [5] -0.005 | [6] 0.046 | [7] 0.008 | [8] -0.002 | IRAK-1-4 Inhibitor I 0.004 | ibrutinib 0.001 | [9] -0.008 | ralimetinib 0.003 | [10] 0.021 | [11] -0.014 | [12] -0.027 | [13] -0.025 | [14] -0.023 | [15] -0.04 | [16] -0.013

Two successive records from above, for reference:
COG5 isoform 2 (UniProt Q9UP83)
inactive: erlotinib 0.073 | [1] 0.016 | [2] -0.044 | [3] 0.001 | [4] -0.004 | [5] 0.019 | [6] 0.031 | [7] 0.019 | [8] 0.043 | IRAK-1-4 Inhibitor I -0.001 | ibrutinib 0.061 | [9] -0.036 | ralimetinib 0.074 | [10] -0.027 | [11] 0.037 | [12] -0.005 | [13] 0.04 | [14] -0.016 | [15] 0.073 | [16] 0.052

CNOT9 (UniProt Q92600)
inactive: erlotinib 0.034 | [1] -0.02 | [2] 0.013 | [3] 0.048 | [4] 0.012 | [5] 0.001 | [6] -0.038 | [7] -0.029 | [8] 0.039 | IRAK-1-4 Inhibitor I 0.062 | ibrutinib 0.046 | [9] -0.002 | ralimetinib 0.012 | [10] -0.034 | [11] -0.016 | [12] 0.021 | [13] 0.001 | [14] 0.037 | [15] -0.036 | [16] 0.015

Remaining list, next part:

CNOT11 (UniProt Q9UKZ1)
inactive: erlotinib 0.014 | [1] 0.015 | [2] -0.003 | [3] 0.002 | [4] 0.025 | [5] -0.002 | [6] -0.05 | [7] -0.014 | [8] 0.025 | IRAK-1-4 Inhibitor I 0.018 | ibrutinib -0.062 | [9] 0.006 | ralimetinib -0.019 | [10] -0.051 | [11] -0.035 | [12] -0.016 | [13] -0.013 | [14] 0.039 | [15] 0.072 | [16] -0.007
